# Results published in PubChem BioAssay (EPA / NIEHS).
# The chains behind the UniProt entries cited, without tags or fusion partners. Where a name states a change or a piece, a line headed by the entry shows the natural chain unless it says otherwise.
# UniProt P10586, whole entry, looked up: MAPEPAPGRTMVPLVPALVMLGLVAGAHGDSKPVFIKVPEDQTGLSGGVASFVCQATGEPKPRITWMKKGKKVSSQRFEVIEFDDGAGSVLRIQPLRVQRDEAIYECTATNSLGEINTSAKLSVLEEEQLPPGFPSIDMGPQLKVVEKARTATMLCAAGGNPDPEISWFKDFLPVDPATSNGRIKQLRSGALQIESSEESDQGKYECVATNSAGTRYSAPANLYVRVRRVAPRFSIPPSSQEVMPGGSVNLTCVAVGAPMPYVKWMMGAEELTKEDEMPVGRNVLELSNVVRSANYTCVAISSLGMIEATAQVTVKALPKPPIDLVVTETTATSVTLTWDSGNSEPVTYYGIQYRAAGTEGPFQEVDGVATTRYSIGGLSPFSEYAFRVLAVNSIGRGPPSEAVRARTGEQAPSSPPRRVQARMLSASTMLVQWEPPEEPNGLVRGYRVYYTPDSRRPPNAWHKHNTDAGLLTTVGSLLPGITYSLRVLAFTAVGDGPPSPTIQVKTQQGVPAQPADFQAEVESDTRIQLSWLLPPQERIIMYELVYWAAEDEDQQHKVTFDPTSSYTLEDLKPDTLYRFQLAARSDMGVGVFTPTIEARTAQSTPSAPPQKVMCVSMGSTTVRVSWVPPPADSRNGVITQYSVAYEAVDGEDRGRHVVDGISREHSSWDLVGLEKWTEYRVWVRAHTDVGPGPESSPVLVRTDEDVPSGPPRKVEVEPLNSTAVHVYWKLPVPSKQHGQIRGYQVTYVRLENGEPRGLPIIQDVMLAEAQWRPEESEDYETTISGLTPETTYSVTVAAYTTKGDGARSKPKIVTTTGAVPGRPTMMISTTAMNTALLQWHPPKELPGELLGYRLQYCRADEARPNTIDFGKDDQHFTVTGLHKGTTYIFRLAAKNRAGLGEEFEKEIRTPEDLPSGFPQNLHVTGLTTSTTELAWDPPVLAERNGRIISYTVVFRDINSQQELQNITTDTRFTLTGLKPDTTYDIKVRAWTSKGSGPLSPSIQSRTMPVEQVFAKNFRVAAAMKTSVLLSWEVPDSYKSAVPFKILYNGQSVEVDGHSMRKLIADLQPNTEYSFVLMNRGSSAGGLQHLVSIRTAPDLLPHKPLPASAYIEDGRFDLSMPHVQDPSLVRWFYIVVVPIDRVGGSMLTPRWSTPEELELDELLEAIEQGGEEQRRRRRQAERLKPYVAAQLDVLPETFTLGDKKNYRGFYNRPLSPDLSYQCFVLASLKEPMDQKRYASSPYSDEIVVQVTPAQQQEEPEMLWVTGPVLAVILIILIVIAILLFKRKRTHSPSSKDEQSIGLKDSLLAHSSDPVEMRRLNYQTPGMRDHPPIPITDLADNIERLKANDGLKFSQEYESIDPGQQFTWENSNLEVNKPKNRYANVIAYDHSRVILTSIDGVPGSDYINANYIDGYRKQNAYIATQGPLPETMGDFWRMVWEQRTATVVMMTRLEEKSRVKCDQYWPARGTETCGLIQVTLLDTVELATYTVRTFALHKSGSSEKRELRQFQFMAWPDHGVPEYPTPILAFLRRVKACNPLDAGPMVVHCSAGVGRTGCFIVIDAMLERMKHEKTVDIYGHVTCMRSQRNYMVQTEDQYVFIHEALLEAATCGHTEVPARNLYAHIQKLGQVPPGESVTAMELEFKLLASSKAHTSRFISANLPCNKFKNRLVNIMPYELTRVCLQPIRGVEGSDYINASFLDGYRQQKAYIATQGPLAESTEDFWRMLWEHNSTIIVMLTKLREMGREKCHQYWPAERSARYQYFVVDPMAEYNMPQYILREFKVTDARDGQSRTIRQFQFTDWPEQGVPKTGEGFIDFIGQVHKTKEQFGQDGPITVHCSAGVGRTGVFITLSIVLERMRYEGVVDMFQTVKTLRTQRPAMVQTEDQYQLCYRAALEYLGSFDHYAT
# UniProt P06241, whole entry, looked up: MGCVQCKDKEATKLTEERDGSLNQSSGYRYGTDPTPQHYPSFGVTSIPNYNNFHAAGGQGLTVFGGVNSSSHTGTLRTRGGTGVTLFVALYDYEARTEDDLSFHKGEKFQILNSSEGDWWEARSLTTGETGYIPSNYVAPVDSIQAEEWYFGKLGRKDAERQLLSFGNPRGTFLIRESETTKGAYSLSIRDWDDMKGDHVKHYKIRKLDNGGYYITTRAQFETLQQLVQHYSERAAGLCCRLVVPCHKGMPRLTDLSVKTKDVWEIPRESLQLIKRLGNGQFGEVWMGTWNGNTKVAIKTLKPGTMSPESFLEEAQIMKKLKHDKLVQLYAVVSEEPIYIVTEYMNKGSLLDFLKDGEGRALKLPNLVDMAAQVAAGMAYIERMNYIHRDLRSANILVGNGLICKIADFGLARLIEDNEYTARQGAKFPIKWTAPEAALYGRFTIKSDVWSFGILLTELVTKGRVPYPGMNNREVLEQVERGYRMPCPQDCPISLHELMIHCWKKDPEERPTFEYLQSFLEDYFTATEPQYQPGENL
# UniProt P28827, whole entry, looked up: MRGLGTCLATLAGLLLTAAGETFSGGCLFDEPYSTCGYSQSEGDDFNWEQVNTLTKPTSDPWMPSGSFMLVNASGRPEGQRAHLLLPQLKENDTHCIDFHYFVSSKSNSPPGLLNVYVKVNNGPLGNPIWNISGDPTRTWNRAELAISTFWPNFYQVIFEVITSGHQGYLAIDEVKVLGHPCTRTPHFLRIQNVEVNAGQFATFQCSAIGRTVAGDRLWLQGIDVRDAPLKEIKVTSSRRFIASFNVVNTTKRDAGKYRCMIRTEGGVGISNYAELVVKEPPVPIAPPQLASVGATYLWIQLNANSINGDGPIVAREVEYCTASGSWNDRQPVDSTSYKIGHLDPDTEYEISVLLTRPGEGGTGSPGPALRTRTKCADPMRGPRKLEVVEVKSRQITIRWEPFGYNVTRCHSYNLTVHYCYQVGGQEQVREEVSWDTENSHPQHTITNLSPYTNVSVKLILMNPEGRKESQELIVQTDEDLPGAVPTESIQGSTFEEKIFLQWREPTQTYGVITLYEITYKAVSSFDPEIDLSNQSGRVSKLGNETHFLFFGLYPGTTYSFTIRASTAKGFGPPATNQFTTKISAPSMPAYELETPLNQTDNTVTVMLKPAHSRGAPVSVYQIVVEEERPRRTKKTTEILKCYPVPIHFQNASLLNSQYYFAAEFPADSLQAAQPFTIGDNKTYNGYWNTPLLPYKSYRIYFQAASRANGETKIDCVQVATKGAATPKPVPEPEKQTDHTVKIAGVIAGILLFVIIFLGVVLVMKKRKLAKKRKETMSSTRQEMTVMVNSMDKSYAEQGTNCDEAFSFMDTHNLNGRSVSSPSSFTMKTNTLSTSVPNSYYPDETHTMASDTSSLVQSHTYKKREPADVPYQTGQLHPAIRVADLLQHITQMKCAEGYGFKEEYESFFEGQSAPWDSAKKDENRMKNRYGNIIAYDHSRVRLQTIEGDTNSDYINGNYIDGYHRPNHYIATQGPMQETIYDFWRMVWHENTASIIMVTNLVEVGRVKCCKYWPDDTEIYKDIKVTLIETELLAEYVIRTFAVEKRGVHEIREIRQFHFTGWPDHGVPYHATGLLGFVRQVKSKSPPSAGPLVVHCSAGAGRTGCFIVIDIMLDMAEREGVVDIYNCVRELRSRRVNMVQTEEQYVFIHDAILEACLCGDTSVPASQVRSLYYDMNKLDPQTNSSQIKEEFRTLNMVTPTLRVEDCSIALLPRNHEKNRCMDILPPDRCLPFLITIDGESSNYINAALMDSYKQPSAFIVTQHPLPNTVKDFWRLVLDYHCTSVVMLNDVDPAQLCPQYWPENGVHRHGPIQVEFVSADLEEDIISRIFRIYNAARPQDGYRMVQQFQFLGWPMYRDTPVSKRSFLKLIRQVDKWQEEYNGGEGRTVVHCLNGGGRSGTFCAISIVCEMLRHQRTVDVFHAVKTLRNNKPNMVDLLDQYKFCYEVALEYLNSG
# UniProt P28482, whole entry, looked up: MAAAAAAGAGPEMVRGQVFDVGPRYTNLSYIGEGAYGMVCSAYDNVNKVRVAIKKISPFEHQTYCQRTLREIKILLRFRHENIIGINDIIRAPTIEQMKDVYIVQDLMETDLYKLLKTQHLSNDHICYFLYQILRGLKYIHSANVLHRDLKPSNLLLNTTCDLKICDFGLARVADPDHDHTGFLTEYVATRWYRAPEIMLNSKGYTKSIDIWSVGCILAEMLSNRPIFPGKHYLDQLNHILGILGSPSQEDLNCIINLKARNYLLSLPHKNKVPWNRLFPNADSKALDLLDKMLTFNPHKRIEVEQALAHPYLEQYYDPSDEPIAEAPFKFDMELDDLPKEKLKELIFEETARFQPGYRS
# UniProt P37238, whole entry, looked up: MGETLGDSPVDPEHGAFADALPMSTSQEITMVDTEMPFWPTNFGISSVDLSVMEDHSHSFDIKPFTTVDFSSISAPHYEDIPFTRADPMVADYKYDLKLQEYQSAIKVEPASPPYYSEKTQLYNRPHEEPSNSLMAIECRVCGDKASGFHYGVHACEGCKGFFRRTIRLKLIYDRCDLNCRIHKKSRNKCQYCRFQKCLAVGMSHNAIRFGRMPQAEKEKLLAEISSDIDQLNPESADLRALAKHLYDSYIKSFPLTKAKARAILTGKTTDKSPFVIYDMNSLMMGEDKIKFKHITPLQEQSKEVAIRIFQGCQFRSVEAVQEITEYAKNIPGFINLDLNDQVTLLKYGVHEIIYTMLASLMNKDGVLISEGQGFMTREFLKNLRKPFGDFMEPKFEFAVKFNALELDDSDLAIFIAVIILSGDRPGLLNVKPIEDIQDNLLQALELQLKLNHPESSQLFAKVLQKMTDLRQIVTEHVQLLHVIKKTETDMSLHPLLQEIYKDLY
# UniProt P08219: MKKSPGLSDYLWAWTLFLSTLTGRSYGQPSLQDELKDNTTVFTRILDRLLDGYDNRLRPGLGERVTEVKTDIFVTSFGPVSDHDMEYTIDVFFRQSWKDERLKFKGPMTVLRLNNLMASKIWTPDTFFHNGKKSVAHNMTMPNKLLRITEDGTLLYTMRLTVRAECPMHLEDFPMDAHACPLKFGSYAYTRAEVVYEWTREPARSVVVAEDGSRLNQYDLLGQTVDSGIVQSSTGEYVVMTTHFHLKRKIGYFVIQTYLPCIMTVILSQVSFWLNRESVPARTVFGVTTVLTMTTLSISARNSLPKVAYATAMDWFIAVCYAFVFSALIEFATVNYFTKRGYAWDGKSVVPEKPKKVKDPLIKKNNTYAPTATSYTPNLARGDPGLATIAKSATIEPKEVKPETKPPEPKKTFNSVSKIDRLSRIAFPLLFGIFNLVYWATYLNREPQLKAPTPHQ
# UniProt P30989, whole entry, looked up: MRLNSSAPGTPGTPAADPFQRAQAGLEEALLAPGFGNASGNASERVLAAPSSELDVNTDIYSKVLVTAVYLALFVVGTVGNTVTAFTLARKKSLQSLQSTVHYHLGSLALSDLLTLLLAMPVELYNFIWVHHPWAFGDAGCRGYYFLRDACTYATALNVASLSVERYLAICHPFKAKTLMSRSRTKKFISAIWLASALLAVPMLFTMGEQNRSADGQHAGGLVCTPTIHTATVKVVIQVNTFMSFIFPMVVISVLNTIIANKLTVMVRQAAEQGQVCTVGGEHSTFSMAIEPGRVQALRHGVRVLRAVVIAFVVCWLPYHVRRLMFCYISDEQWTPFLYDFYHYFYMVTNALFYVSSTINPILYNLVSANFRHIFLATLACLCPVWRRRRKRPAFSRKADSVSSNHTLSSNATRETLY
# UniProt P10275: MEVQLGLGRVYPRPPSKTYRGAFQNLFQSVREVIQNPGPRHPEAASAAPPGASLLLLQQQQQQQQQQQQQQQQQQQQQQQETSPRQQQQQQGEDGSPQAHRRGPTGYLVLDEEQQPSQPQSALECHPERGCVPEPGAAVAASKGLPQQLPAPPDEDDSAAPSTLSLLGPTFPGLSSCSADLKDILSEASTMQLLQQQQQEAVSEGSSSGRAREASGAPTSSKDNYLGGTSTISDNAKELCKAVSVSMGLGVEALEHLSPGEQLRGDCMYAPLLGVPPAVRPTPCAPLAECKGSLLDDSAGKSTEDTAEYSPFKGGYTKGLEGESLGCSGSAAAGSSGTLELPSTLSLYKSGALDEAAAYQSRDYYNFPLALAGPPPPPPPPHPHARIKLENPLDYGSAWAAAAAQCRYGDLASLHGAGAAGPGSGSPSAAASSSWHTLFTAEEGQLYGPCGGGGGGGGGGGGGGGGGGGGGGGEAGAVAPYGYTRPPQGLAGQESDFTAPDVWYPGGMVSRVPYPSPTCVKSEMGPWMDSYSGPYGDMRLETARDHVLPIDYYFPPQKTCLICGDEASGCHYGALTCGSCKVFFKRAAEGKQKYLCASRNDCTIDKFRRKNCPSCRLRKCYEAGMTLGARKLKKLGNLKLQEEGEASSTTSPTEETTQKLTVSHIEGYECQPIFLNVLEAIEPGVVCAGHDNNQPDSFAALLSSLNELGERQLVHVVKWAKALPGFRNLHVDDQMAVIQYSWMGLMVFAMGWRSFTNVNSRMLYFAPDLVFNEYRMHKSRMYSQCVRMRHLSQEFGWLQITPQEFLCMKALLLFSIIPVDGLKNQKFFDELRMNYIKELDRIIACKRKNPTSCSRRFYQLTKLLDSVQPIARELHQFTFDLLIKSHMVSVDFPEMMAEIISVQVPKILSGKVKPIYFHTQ
# Several values for one entry are separate records, joined by “and”; a condition that tells them apart may be missing. Identical values can stand only once. Inconclusive results, whose numbers are uncertain, are shown with a selection of clear calls. Where the call is inconclusive, the potency comes from a doubtful curve fit. Activity calls are given as the source filed them. The calls were made as follows: active = hit-call score of the fitted dose curve at least 0.9, where 1 is the maximum; inconclusive = response in the unintended direction; inactive = score below 0.9.
# How the values were obtained:
# [1] = target: human Endothelin Receptor Type A (ETA), EDNRA (gene 1909) (UniProt P25101); assay: NVS_GPCR_hETA: NovaScreen (NVS) G Protein-Coupled Receptor Assay for human Endothelin Receptor Type A (ETA) (AID 2283265)
# Method in brief: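 Cell-free radioligand displacement using SH-SY5Y-derived protein, 3 h incubation, filter-based scintillation counting. Primary screen in duplicate at 25 uM; actives then run in concentration-response up to 50 uM; loss of binding fitted versus DMSO.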
# [2] = target: human Protein Tyrosine Phosphatase Receptor Type F (PTPRF), PTPRF (gene 5792) (UniProt P10586); assay: NVS_ENZ_hPTPRF: NovaScreen (NVS) Enzymatic Assay for human Protein Tyrosine Phosphatase Receptor Type F (PTPRF) (AID 2283213)
# Method in brief: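 Cell-free fluorescence enzyme assay with recombinant protein and substrate; product separated by electrophoretic mobility shift. Read 1 h after dosing, single 25 uM duplicate screen, then concentration-response up to 50 uM; loss of signal vs DMSO.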
# [3] = target: human FYN Proto-Oncogene, Src family Tyrosine Kinase (Fyn), FYN (gene 2534) (UniProt P06241); assay: NVS_ENZ_hFyn: NovaScreen (NVS) Enzymatic Assay for human FYN Proto-Oncogene, Src family Tyrosine Kinase (Fyn) (AID 2283161)
# Method in brief: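 Recombinant enzyme with fluorescent substrate, product separated by electrophoretic mobility shift; read 1 h after dosing. Duplicate 25 uM single-point screen, actives retested in concentration series; loss of signal vs DMSO.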
# [4] = target: human Protein Tyrosine Phosphatase Receptor Type M (PTPRM), PTPRM (gene 5797) (UniProt P28827); assay: NVS_ENZ_hPTPRM: NovaScreen (NVS) Enzymatic Assay for human Protein Tyrosine Phosphatase Receptor Type M (PTPRM) (AID 2283215)
# Method in brief: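 Cell-free recombinant PTPRM with fluorogenic substrate; product separated from substrate by electrophoretic mobility shift and read by fluorescence, 1.33 h after dosing. Primary screen single concentration (25 uM) in duplicate; actives retested in concentration series; loss of signal versus DMSO.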
# [5] = target: human Mitogen-Activated Protein Kinase 1 (MAPK 1), MAPK1 (gene 5594) (UniProt P28482); assay: NVS_ENZ_hMAPK1: NovaScreen (NVS) Enzymatic Assay for human Mitogen-Activated Protein Kinase 1 (MAPK 1) (AID 2283175)
# Method in brief: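 Cell-free recombinant human MAPK1 enzymatic assay, fluorescence/electrophoretic mobility shift read at 1 h; loss of signal vs DMSO. Primary screen in duplicate at 25 uM; actives (e.g. ≥30% inhibition) run as concentration-response up to 50 uM.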
# [6] = target: rat Acetylcholinesterase (AChE), Ache (gene 83817) (UniProt P37136); assay: NVS_ENZ_rAChE: NovaScreen (NVS) Enzymatic Assay for rat Acetylcholinesterase (AChE) (AID 2283233)
# Method in brief: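 Rat brain membrane acetylcholinesterase activity measured colorimetrically 0.33 h after compound addition, loss of signal relative to DMSO. Primary screen in duplicate at 25 uM; actives re-run as concentration-response with 50 uM top concentration.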
# [7] = ArunA_CellTiter_hNC: Viability Assessment in the ArunA Biomedical's Oris Neural Crest (hNC) Cell Migration Assay (AID 2283752)
# Method in brief: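 Viability of embryonic neural crest stem cells from the H9 line is scored 72 h after dosing, with DMSO as negative control and baseline. A drop in CellTiter Aqueous One signal indicates cytotoxicity.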
# [8] = ArunA_NOG_NeuritesPerNeuron: ArunA Biomedical's Neurite Outgrowth (NOG) Assay for Neurites Per Neuron (AID 2283758)
# Method in brief: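 Differentiated human H9-derived neurons exposed to chemicals for 48 h from seeding, then stained with Hoechst and βIII-tubulin/DyLight 488. Automated imaging counted neurites (processes >10 um) per valid neuron; loss of signal versus DMSO scored.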
# [9] = target: mouse Peroxisome Proliferator-activated Receptor gamma (PPARg), Pparg (gene 19016) (UniProt P37238); assay: ATG_mPPARg_XSP2: Attagene TRANS-FACTORIAL Multi-Species (XSP2) HepG2 Assay for mouse Peroxisome Proliferator-activated Receptor gamma (PPARg) (AID 2283830);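 also: hits are gains in reporter mRNA above DMSO so AC50 marks activation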
# Method in brief: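 HepG2 cells transiently transfected with GAL4-UAS reporter units for chimeric NR-Gal4 proteins including mouse PPARg, exposed 24 h; medium contained 3 nM 6-alpha-fluorotestosterone and 1.5 nM norgestrel. Reporter mRNA quantified by RT-PCR, HpaI digestion and capillary electrophoresis, vs DMSO.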
# [10] = target: bovine Gamma-Aminobutyric Acid Type A Receptor BDZ, alpha 1 site (GABARa1), GABRA1 (gene 780973) (UniProt P08219); assay: NVS_LGIC_bGABARa1: NovaScreen (NVS) Ligand-Gated Ion Channel Assay for bovine Gamma-Aminobutyric Acid Type A Receptor BDZ, alpha 1 site (GABARa1) (AID 2283321)
# Method in brief: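 Radioligand competition binding on bovine cortical membranes, 0.75 h, filter-based scintillation counting. Primary single concentration 25 uM in duplicate; actives rerun in concentration-response to 50 uM max. Loss of signal fitted versus DMSO.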
# [11] = target: human Adrenergic, Beta 3 Receptor (Adrb3), ADRB3 (gene 155) (UniProt P13945); assay: NVS_GPCR_hAdrb3: NovaScreen (NVS) G Protein-Coupled Receptor Assay for human Adrenergic, Beta 3 Receptor (Adrb3) (AID 2283262)
# Method in brief: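 Membranes from SK-N-MC cells pretreated with isoproterenol and 8-bromo-cAMP were used in a radioligand competitive displacement binding assay. Binding was read by filter-based scintillation counting 1 hour after dosing. Primary screening was in duplicate at 25 uM, with concentration series in follow-up.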
# [12] = system: zebrafish Estrogen Receptor (ER2a), gene 317734; assay: ATG_zfER2a_XSP2: Attagene TRANS-FACTORIAL Multi-Species (XSP2) HepG2 Assay for zebrafish Estrogen Receptor (ER2a) (AID 2283818);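 also: hits raise reporter mRNA so AC50 reflects activation of zebrafish ER2a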
# Method in brief: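 HepG2 cells transiently transfected with GAL4-UAS reporter units and chimeric zebrafish ER2a-Gal4, exposed 24 h; medium contains 3 nM 6-alpha-fluorotestosterone and 1.5 nM norgestrel. Reporter mRNA quantified by RT-PCR, HpaI digestion, capillary electrophoresis; gain versus DMSO.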
# [13] = system: rat Adrenergic, Alpha 1B Receptor (Adra1B), gene 24173; assay: NVS_GPCR_rAdra1B: NovaScreen (NVS) G Protein-Coupled Receptor Assay for rat Adrenergic, Alpha 1B Receptor (Adra1B) (AID 2283297)
# Method in brief: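 Rat liver membranes, radioligand displacement with filter-based scintillation detection, 1 h incubation. Primary screen in duplicate at 25 uM; actives retested in concentration series; activity relative to DMSO.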
# [14] = CCTE_Mundy_HCI_iCellGluta_NOG_NeuriteCount: CCTE's Neurite Outgrowth Assay in iCellGluta cells for Neurite Count, Mundy Lab (AID 2284342);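 also: chemical exposure about 48 hours starting 2 hours after plating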
# [15] = target: human CYP1A1, CYP1A1 (gene 1543) (UniProt P04798); assay: NVS_ADME_hCYP1A1: NovaScreen (NVS) CYP450-related Enzyme Activity (ADME) Assay for human CYP1A1 (AID 2283100)
# Method in brief: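 Recombinant hCYP1A1 + fluorogenic substrate, cell-free; 1 h; fluorescence read. Single-point 10 uM (duplicate) → concentration series, max 20 uM. Acetonitrile negative control.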
# [16] = target: Mitogen-activated protein kinase 3 (Homo sapiens) (UniProt P27361); assay: NVS_ENZ_hMAPK3: NovaScreen (NVS) Enzymatic Assay for human Mitogen-Activated Protein Kinase 3 (MAPK 3) (AID 2283177)
# Method in brief: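 Cell-free enzymatic assay with recombinant protein and specific substrate; fluorescence and electrophoretic mobility shift read-out 1 h after dosing. Primary screen duplicate at 25 uM; actives then run in concentration-response up to 50 uM, loss of signal versus DMSO.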
# [17] = target: human Serotonin, 5-Hydroxytryptamine Receptor 7 (5HT7), HTR7 (gene 3363) (UniProt P34969); assay: NVS_GPCR_h5HT7: NovaScreen (NVS) G Protein-Coupled Receptor Assay for human Serotonin, 5-Hydroxytryptamine Receptor 7 (5HT7) (AID 2283255);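 also: hits reduce specific radioligand binding relative to DMSO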
# Method in brief: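 Radioligand displacement on membranes from CHO cells expressing human 5HT7, 1 h incubation, filter-based scintillation counting. Primary screen used a single 25 uM concentration in duplicate; actives were followed up in concentration series.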
# [18] = target: human Neurotensin Receptor (NTS), NTSR1 (gene 4923) (UniProt P30989); assay: NVS_GPCR_hNTS: NovaScreen (NVS) G Protein-Coupled Receptor Assay for human Neurotensin Receptor (NTS) (AID 2283279)
# Method in brief: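 Radioligand displacement on human NTSR1 protein from CHO cells, cell-free, 1 h, filter-based scintillation counting. Primary screen at 25 uM in duplicate; hits rerun in concentration-response up to 50 uM.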
# [19] = system: rabbit Platelet Activating Factor Receptor (PAF), gene 100354046; assay: NVS_GPCR_rabPAF: NovaScreen (NVS) G Protein-Coupled Receptor Assay for rabbit Platelet Activating Factor Receptor (PAF) (AID 2283287)
# Method in brief: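 Rabbit platelet membrane preparation; radioligand displacement read by filter-based scintillation counting 1 h after dosing, loss of signal versus DMSO. Primary screen in duplicate at 25 uM, actives followed up in concentration series.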
# [20] = target: human Androgen Receptor (AR), AR (gene 367) (UniProt P10275); assay: NVS_NR_hAR: NovaScreen (NVS) Nuclear Receptor Binding Assay for human Androgen Receptor (AR) (AID 2283332)
# Method in brief: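 Actives from a duplicate 25 uM single-point screen went on to concentration series. Read-out after 20 h was scintillation counting of displaced radioligand in LnCAP extract, with DMSO as baseline.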
smiles,measurement,setting,value
CC(C)C1CCC(Cc2ccc(Cl)cc2)C1(O)Cn1cncn1 (centres undefined),AC50,[1],inconclusive: 25 µM
N#Cc1c(Cl)cccc1Cl,outcome,[2],inactive
N#CSCSC#N,AC50,[3],inconclusive: 44.9 µM
same,outcome,[4],inactive
COC(=O)Nc1nc2ccccc2[nH]1,AC50,[5],active: 46.7 µM
COCC(=O)N(c1c(C)cccc1C)C(C)C(=O)OC (centres undefined),AC50,[6],inconclusive: 14.3 µM
C[Si](Cn1cncn1)(c1ccc(F)cc1)c1ccc(F)cc1,AC50,[7],inconclusive: 5 µM
same,AC50,[8],inconclusive: 1.66 µM
CCCCOC(=O)c1ccccc1C(=O)OCc1ccccc1,AC50,[9],active: 60.8 µM
CCN(CC)N=O,outcome,[3],inactive
same,AC50,[10],inconclusive: 0.109 µM
Cc1cnc(C2=NC(C)(C(C)C)C(=O)N2)c(C(=O)O)c1 (centres undefined),AC50,[11],inconclusive: 4.96 µM
CCCOc1nn(C(=O)NS(=O)(=O)c2ccccc2C(=O)OC)c(=O)n1C,AC50,[11],inconclusive: 25 µM
N#CN=C1SCCN1Cc1ccc(Cl)nc1,AC50,[2],inconclusive: 25 µM
same,outcome,[10],inactive
O=P(Oc1ccccc1)(Oc1ccccc1)Oc1ccccc1,outcome,[7],inactive
same,AC50,[8],inconclusive: 5 µM
same,outcome,[12],inactive
O=S(=O)(O)C(F)(F)C(F)(F)C(F)(F)C(F)(F)C(F)(F)C(F)(F)C(F)(F)C(F)(F)F,AC50,[3],active: 47 µM
same,AC50,[2],active: 14.8 µM and active: 13.1 µM
same,AC50,[4],active: 23.6 µM and active: 43 µM
same,outcome,[1],inactive
same,AC50,[13],inconclusive: 25 µM
same,outcome,[13],inactive
same,AC50,[7],inconclusive: 0.12 µM
same,AC50,[14],inconclusive: 50 µM
C=C(C)[C@H]1Cc2c(ccc3c2O[C@@H]2COc4cc(OC)c(OC)cc4[C@@H]2C3=O)O1,outcome,[15],inactive
same,outcome,[5],inactive
same,AC50,[16],inconclusive: 25 µM
same,AC50,[4],inconclusive: 25 µM
same,AC50,[17],inconclusive: 25 µM
same,AC50,[18],inconclusive: 25 µM
same,AC50,[14],active: 0.907 µM
C=CCC1=C(C)[C@@H](OC(=O)[C@@H]2[C@@H](C=C(C)C)C2(C)C)CC1=O,AC50,[10],inconclusive: 0.17 µM
same,AC50,[8],inconclusive: 5 µM
CC1=C(C(=O)Nc2ccccc2)SCCO1,AC50,[19],inconclusive: 1.83 µM
CCCCC(CC)COC(=O)c1ccc(C(=O)OCC(CC)CCCC)c(C(=O)OCC(CC)CCCC)c1 (centres undefined),AC50,[9],inconclusive: 24.3 µM
same,outcome,[9],inactive
CCCC1COC(Cn2cncn2)(c2ccc(Cl)cc2Cl)O1 (centres undefined),AC50,[16],inconclusive: 25 µM
same,AC50,[11],inconclusive: 5.89 µM
same,AC50,[12],inconclusive: 0.852 µM
CCOC(=O)C(O)(c1ccc(Cl)cc1)c1ccc(Cl)cc1,AC50,[5],inconclusive: 1.79 µM
same,outcome,[12],inactive
CC(C)N(Cc1ccccc1)C(=O)C(C)(C)C,AC50,[13],inconclusive: 1.12 µM
CSC(=O)c1c(C(F)F)nc(C(F)(F)F)c(C(=O)SC)c1CC(C)C,AC50,[6],inconclusive: 8.56 µM
CCCCNC(=O)n1c(NC(=O)OC)nc2ccccc21,AC50,[16],inconclusive: 0.306 µM
CNC(=O)ON=C(C)SC,outcome,[19],inactive
CCOP(=S)(OCC)SCCSCC,AC50,[18],inconclusive: 0.423 µM
same,AC50,[14],inconclusive: 0.000921 µM
COC(=O)N(C(=O)N1CO[C@@]2(C(=O)OC)Cc3cc(Cl)ccc3C2=N1)c1ccc(OC(F)(F)F)cc1,outcome,[17],inactive
O=C(O)c1nc(Cl)ccc1Cl,AC50,[15],inconclusive: 14.9 µM
same,AC50,[18],inconclusive: 25 µM
CCOc1cc(C(C)(C)C)ccc1C1COC(c2c(F)cccc2F)=N1 (centres undefined),AC50,[17],inconclusive: 25 µM
O=C(Nc1ccccc1)Nc1ccnc(Cl)c1,AC50,[19],inconclusive: 44.6 µM
same,AC50,[20],active: 5.13 µM
CCCCOC(=O)c1ccccc1C(=O)O,AC50,[15],inconclusive: 0.696 µM
same,AC50,[20],inconclusive: 0.148 µM
CCN(CC)C(=O)Cl,outcome,[20],inactive
CC(C)C1(C)N=C(c2nc3ccccc3cc2C(=O)O)NC1=O (centres undefined),AC50,[6],inconclusive: 6.55 µM
